From patent US20110177063A1
No constants are given. Whether binding was seen depends on the method and setting. Some results given as binding are weak or reduced against the parent protein; the word gives no strength. Blank lines part the entries; values can stand above or below the binder they belong to.

Tests used:
[1] = biological target: T1, mature human progastrin (human) (UniProt P01350); assay: stated in Example 6, assay not named
T1 sequence: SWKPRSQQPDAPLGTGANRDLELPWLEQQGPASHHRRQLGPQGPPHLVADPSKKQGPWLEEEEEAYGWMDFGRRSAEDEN

[2] = biological target: T1, mature human progastrin (human); assay: specificity, assay not named
[3] = biological target: T1, mature human progastrin (human); assay: stated in Example 15, assay not named

binding [1]: binds | binding [2]: binds
B1: Anti-hPG MAb 19 (antibody, V domains shown)
VH: DVQLQESGPGLVKPSQSLSLTCTVTGYSITSDYAWNWIRQFPGNKLEWMGYISFSGYTSYNPSLKSRISVTRDTSRNQFFLQLTSVTTEDTATYYCAREVNYGDSYHFDYWGQGTIVTVSS
VL: QLALTQSSSASFSLGASAKLTCTLSSQHRTYTIEWYQQQSLKPPKYVMEVKKDGSHSTGHGIPDRFSGSSSGADRYLSISNIQPEDEAIYICGVGDAIKGQSVFVFGGGTKVTVL

binding [2]: binds
B2: Anti-hPG MAb 3 (antibody, V domains shown)
VH: EVQLQQSGTVLARPGASVKMSCKASGYIFTSYWVHWVKQRPGQGLEWIGGFYPGNSDSRYNQKFKGKATLTAVTSASTAYMDLSSLTNEDSAVYFCTRRDSPQYWGQGTTLTVSS
VL: DVLMTQTPLSLPVSLGDQASISCRSSQSIVHSNGNTYLEWYLQKPGQSPKLLIYKVSNRFSGVPDRFSGSGSGTDFTLKISRLEAEDLGVYYCFQGSHVPFTFGGGTKLEIK

binding [1]: binds | binding [3]: binds | binding [2]: binds
B3: Anti-hPG MAb 8 (antibody, V domains shown)
VH: EVQLVESGGGLVKPGGSLKLSCAASGFTFTTYAMSWVRQTPEKRLEWVATISSGGTYTYYPDSVKGRFTISRDNAKNALYLQMSSLRSEDTAMYYCATQGNYSLDFWGQGTSLTVSS
VL: DIVMTQAASSNPVTLGTSASISCRSSKSLRHTKGITFLYWYLQKPGQSPQLLIYQMSNLASGVPDRFSSSGSGTDFTLRISRVEAEDLGVYYCAQNLELPLTFGAGTKLELK

binding [2]: binds
B4: Anti-hPG MAb 4 (antibody, V domains shown)
VH: QVQLQQSGAELMKPGASVKISCKATGYTFSSSWIEWLKQRPGHGLEWIGEFLPGSGSTDYNEKFKGKATFTADTSSDTAYMLLSSLTSEDSAVYYCATDGNYDWFAYWGQGTLVTVSA
VL: DLVMTQTPLSLPVSLGDQASISCRSSQSLVHSSGVTYLHWYLQKPGQSPKLLIYKVSNRFSGVPDRFSGSGSGTDFTLKISRVEAEDLGVYFCSQSTHVPPTFGSGTKLEIK
